One may read the IC50 as the point on the concentration scale where inhibition reaches its midpoint. A word on the EC50: it is the concentration needed to bring the measured effect to its halfway point.

Protein sequences, listed by entry. Tags and fused reporters are not part of them. Residues count along the entry.
UniProt Q86WV6, 140-379 limits assumed: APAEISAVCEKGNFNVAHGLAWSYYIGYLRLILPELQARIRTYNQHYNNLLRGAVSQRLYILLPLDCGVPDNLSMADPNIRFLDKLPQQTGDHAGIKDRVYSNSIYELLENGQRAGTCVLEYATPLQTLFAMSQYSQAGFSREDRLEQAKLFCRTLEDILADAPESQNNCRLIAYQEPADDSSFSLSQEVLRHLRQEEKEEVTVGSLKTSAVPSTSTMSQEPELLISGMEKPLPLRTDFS

IC50 and EC50 data for 4 compounds are collected here from patent publication US11401295B2, “Cyclic dinucleotide compound and uses thereof” (SHANGHAI JEMINCARE PHARMACEUTICALS CO., LTD., priority 2018, dated 2022).

Structures are written as SMILES. The structures given here were assigned with low confidence; some may be wrong.

The target of experiment [1] is human STING protein (C-terminal, wild-type, aa 140-379) (Homo sapiens (Human), UniProt Q86WV6). Nature of the experiment: STING in vitro binding test (fluorescence polarization, FP assay). Particulars: read-out: FP affinity test IC50; competition with 30 nM fluorescein-labeled c-di-GMP, 10 μM human STING protein; tested form: ammonium salt. (In general: Polarisation of emitted light reports the rotation of a fluorescent probe.)

Experiment [2] relates to IRF3 pathway in THP1-Dual cells. Put plainly: THP1-Dual reporter gene activity assay (Lucia luciferase, QUANTI-Luc). Particulars: 30 min treatment, 18 hours incubation, tested form: ammonium salt.
The subject of experiment [3] is IRF3 pathway in RAW-Dual cells (RAW264.7). Nature of the experiment: Raw-Dual reporter gene activity assay (luciferase, QUANTI-Luc). Particulars: read-out: Raw, EC50, 30 min treatment, 18-24 hours incubation, tested form: ammonium salt. Background: In a reporter assay the amount or activity of a reporter protein is the signal.

Regarding `[BH3-][P+]1(O)OC[C@H]2O[C@@H](n3cnc4c(N)ncnc43)[C@H](F)[C@@H]2OP(=O)(S)OC[C@H]2O[C@@H](n3cnc4c(N)ncnc43)[C@H](F)[C@@H]2O1` (single isomer, unassigned) [Compound 4A], in experiment [1], the IC50 worked out at 2760 nM. The half-maximal effective concentration (EC50) in experiment [2] was 3.06 µM.

For the compound `[BH3-][P+]1(O)OC[C@H]2O[C@@H](n3cnc4c(N)ncnc43)[C@H](F)[C@@H]2OP(=O)(S)OC[C@H]2O[C@@H](n3cnc4c(N)ncnc43)[C@H](F)[C@@H]2O1` (single isomer, unassigned) [Compound 4B], the 50% inhibitory concentration (IC50) in experiment [1] was determined as 2260 nM. Also, the concentration giving a half-maximal response (EC50) amounted to 3.68 µM in experiment [2] and 2.6 µM in experiment [3].

For the compound `[BH3-][P+]1(O)OC[C@H]2O[C@@H](n3cnc4c(N)ncnc43)[C@H](F)[C@@H]2OP(=O)(S)OC[C@H]2O[C@@H](n3cnc4c(N)ncnc43)[C@H](F)[C@@H]2O1` (single isomer, unassigned) [Compound 4C], the IC50 in experiment [1] turned out to be 1440 nM. In addition, the figures for the half-maximal effective concentration (EC50) in experiment [2] and in experiment [3] were 10.2 µM and 6.3 µM, respectively.

Consider `[BH3-][P+]1(O)OC[C@H]2O[C@@H](n3cnc4c(N)ncnc43)[C@H](F)[C@@H]2OP(=O)(S)OC[C@H]2O[C@@H](n3cnc4c(N)ncnc43)[C@H](F)[C@@H]2O1` (single isomer, unassigned) [Compound 4D], for which the IC50 in experiment [1] was 2860 nM. The values for the EC50 in experiment [2] and in experiment [3] were 48.2 µM and 21 µM, respectively.
